This experiment addresses GST-tagged M063 protein of myxoma virus (myxoma virus) (UniProt Q9Q8N5). Description: AlphaScreen or HTRF; lysates of co-transfected BSR T7/5 cells; anti-GST acceptor beads and Nickel Chelate donor beads; PBS with 0.1% BSA, room temperature.

By UniProt entry, the sequences of proteins in these tests, tags left out.
UniProt Q9Q8N5: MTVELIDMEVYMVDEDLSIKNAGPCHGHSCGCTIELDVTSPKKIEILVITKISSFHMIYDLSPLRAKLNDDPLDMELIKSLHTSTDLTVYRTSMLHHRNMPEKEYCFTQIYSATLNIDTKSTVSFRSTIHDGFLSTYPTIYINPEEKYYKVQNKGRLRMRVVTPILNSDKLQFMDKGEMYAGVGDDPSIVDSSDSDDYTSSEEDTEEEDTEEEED
UniProt P19838: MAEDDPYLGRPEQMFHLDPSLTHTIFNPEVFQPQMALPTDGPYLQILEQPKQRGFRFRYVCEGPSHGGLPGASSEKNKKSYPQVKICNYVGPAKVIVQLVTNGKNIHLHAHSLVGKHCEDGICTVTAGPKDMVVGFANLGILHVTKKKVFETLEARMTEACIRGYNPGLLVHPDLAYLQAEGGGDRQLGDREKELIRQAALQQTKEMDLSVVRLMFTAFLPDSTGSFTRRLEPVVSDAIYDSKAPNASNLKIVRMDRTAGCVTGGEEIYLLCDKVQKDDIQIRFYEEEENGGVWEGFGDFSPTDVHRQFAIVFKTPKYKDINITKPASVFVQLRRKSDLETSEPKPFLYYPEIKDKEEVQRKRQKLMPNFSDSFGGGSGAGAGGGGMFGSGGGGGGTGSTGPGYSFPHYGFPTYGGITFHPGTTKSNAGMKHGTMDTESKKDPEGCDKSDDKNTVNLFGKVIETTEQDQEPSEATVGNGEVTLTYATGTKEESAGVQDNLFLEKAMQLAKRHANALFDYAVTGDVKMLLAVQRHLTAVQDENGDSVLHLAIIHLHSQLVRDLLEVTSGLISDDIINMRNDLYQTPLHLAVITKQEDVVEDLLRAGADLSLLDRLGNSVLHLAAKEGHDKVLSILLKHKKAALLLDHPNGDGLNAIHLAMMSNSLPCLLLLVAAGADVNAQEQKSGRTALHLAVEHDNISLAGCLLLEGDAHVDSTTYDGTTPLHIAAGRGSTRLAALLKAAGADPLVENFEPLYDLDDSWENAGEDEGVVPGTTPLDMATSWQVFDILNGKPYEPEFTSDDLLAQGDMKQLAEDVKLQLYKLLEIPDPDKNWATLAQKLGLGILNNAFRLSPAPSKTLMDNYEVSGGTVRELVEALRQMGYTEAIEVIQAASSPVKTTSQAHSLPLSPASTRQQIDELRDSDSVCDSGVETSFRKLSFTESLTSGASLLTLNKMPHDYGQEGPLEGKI

These are yes or no findings as the source states them, for the method shown.

Regarding “Myc/His tagged human NF-κB1 p105 (from UniProt P19838 1-968)”, the binding result is on record as “no binding”.

For the origin of these results see publication PMC2762494.
